Measured values taken from paper PMC12491784.
The exact form of at least one protein or probe is not confirmed. At least one result comes from cells or an extract, where the contact may be indirect. No signal at the amounts used counts as a negative. For part of these data: At least one verdict was read from the data and is not stated in words by the source.

The chains behind the UniProt entries cited, without tags or fusion partners. Where a name states a change or a piece, a line headed by the entry shows the natural chain unless it says otherwise.
UniProt Q96DH6: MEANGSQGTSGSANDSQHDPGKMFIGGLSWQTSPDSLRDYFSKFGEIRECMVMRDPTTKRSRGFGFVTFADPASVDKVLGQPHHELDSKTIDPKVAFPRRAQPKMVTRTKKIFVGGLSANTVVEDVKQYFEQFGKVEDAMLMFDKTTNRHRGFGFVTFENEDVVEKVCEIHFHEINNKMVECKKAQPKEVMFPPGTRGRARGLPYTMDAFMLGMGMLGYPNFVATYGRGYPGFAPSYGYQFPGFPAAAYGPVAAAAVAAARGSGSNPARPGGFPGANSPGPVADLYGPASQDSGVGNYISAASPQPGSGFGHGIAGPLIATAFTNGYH
UniProt P11940, whole entry: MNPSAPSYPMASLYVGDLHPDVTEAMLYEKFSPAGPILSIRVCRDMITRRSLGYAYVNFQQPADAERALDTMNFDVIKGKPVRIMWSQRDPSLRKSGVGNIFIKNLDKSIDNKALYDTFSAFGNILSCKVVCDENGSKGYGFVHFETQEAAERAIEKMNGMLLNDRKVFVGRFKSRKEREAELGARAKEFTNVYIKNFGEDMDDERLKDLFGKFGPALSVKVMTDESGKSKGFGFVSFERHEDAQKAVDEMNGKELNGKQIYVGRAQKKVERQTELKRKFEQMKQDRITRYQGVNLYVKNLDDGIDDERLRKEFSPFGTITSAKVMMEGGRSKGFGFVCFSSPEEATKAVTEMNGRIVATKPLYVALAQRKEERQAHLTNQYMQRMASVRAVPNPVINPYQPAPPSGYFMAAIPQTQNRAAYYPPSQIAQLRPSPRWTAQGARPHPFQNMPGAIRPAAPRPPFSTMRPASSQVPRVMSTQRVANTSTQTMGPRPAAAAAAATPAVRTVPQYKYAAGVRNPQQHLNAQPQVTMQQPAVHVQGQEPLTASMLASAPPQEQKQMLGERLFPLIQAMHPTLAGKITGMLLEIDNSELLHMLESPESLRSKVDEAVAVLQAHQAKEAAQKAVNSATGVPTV

What was measured:
[1] = target: MSI2 (Musashi-2), endogenous, PANC-1 lysate (UniProt Q96DH6); assay: pull-down; details: RNA pull-down: 100 pmol biotinylated probe on streptavidin beads, 4 C 4 h, high-stringency wash 20 mM Tris-HCl pH 7.5, 1 mM EDTA, 450 mM NaCl, protein in an extract, label: 5' biotin
[2] = target: PABPC1, endogenous, PANC-1 lysate (UniProt P11940); assay: pull-down; details: RNA pull-down: 100 pmol biotinylated probe on streptavidin beads, 4 C 4 h, high-stringency wash 20 mM Tris-HCl pH 7.5, 1 mM EDTA, 450 mM NaCl, protein in an extract, label: 5' biotin

Row | Sequence | binding result [1] | binding result [2]
1 | GUGUGCUCCAAACUUUAUCAAAAG [P1-mut RNA probe] | no binding | –
2 | GUGUGCUCCAUAGUUUAUCAAAAG [P1 RNA probe] | binds | no binding
3 | UCCUAUCAAAUAACUAAACCAAAG [P2-mut RNA probe] | no binding | –
4 | UCCUAUCAAAUUAGUAAACCAAAG [P2 RNA probe] | binds | no binding
